Assays:
[1] = tested on: P. aeruginosa (strain PA14); experiment: Checkerboard assay of potentiator-antibiotic pairs; format: cell-based, Pseudomonas aeruginosa; conditions: breakpoints for Gram-positive species (EUCAST)
[2] = tested on: P. aeruginosa clinical isolates (BWH006, BWH012, BWH013, BWH021, BWH027); experiment: Checkerboard assay of potentiator-antibiotic pairs in clinical isolates; format: cell-based, Pseudomonas aeruginosa

For `CCC[C@@H]1C[C@@H](C(=O)N[C@@H]([C@H]2O[C@H](SC)[C@H](O)[C@@H](O)[C@H]2O)[C@H](C)Cl)N(C)C1` [clindamycin], which “Antibiotic MIC with WD40 relative to clinical breakpoint” value [1] is on record?
Its value is “clinical breakpoints were met”.

What about the “Antibiotic MIC with WD40 relative to clinical breakpoint” value ([2]; 10 μM WD40, MIC95, breakpoints for Gram-positive species (EUCAST)) of the same molecule?
The value was “did not meet their clinical breakpoints”.

And the “MIC of antibiotic alone” value ([2]; range over isolates, Figure 6 names MIC95)?
The value was 1024 to 2048 µg/mL.

— PMC8043124 (ACS Infectious Diseases, 2021)
